Drawing on paper PMC8507291, this text covers binding for two molecules.

Experiment [1] deals with fusion protein GST-p53 (UniProt P04637). The experiment in a line: pull-down; 10 μg of GST-p53 fusion protein incubated with SK-N-SH and A172 cell lysate at 4 °C overnight, Sepharose 4B GST gel beads 4 h, washed 3 times with PBST; Western blot; only the target purified.
For experiment [2], the target named is endogenously expressed p53 (human (endogenous in SK-N-SH and A172)) (UniProt P04637). The experiment in a line: co-IP; endogenous LHX9 and p53 in SK-N-SH and A172 cell lysate; primary antibody overnight at 4 °C, protein A gel beads 4 h, PBST washes; Western blot.
Experiment [3] has as its target HA-p53 (UniProt P04637). As to the kind of experiment: co-IP; exogenously expressed Flag-LHX9 and HA-p53; lysate with primary antibody overnight at 4 °C, protein A gel beads 4 h, PBST washes; Western blot.

No constants are given. Whether binding was seen depends on the method and setting. Binding seen in cells or lysates may run through a third protein. Some binding calls cover weakened binding; strength is not graded here. For part of these data: Tags and fused reporters may be left off the sequences shown.

B1: endogenously expressed LHX9 (protein, UniProt Q9NQ69 1-397)
chain: MEIVGCRAEDNSCPFRPPAMLFHGISGGHIQGIMEEMERRSKTEARLAKGAQLNGRDAGMPPLSPEKPALCAGCGGKISDRYYLLAVDKQWHLRCLKCCECKLALESELTCFAKDGSIYCKEDYYRRFSVQRCARCHLGISASEMVMRARDSVYHLSCFTCSTCNKTLTTGDHFGMKDSLVYCRAHFETLLQGEYPPQLSYTELAAKSGGLALPYFNGTGTVQKGRPRKRKSPALGVDIVNYNSGCNENEADHLDRDQQPYPPSQKTKRMRTSFKHHQLRTMKSYFAINHNPDAKDLKQLAQKTGLTKRVLQVWFQNARAKFRRNLLRQENGGVDKADGTSLPAPPSADSGALTPPGTATTLTDLTNPTITVVTSVTSNMDSHESGSPSQTTLTNLF
In the case of B1, the binding entry in experiment [1] and in experiment [2] was “binds” each time.

B2: flag-tagged LHX9 (Flag-LHX9) (protein, UniProt Q9NQ69 1-397)
chain: B1 chain
B2: the binding entry in experiment [3] was “binds”.
